Data on two molecules can be found in publication PMC8692146.

One assay addresses T1, PTPN2 (UniProt P17706).
T1 sequence: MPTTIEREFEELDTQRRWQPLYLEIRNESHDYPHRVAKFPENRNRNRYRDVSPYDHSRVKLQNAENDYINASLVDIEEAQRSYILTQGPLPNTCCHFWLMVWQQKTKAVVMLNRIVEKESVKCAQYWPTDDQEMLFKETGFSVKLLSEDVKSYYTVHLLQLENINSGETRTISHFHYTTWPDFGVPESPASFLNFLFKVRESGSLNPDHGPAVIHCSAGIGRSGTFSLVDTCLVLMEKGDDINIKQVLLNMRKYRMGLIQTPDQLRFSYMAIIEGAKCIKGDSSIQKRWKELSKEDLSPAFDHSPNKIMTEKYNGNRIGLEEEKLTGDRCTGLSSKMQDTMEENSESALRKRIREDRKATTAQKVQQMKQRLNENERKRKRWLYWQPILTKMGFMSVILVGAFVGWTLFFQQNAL
Nature of the assay: co-IP; Huh7 cells, overexpressed HK2 and PTPN2; reciprocal co-IP.

Another assay concerns the target T2, HK2 (UniProt P52789).
T2 sequence: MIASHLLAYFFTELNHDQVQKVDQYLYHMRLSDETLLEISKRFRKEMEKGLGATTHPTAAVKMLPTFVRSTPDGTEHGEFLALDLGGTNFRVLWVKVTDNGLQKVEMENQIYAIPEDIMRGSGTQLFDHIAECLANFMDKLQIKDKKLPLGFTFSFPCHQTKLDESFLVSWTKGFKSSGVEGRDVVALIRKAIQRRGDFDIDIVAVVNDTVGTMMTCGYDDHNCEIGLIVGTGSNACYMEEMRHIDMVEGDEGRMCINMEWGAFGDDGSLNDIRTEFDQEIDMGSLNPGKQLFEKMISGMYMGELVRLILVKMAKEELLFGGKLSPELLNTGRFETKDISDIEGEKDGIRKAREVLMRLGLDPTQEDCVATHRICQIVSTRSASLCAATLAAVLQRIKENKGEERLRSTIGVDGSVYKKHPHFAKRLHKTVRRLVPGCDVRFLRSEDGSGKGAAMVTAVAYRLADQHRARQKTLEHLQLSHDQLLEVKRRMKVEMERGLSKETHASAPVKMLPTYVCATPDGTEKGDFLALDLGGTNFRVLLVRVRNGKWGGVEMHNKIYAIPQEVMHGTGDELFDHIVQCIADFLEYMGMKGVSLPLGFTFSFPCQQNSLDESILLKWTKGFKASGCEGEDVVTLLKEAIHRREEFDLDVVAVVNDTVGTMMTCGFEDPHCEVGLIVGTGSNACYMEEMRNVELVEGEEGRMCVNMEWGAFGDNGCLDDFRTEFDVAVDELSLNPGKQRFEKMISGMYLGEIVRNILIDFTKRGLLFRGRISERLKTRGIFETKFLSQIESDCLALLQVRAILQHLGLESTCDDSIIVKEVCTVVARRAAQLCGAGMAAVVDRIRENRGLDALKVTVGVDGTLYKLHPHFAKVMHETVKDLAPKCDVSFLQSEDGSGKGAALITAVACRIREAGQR
The assay is described as above.

No constants are given. Whether binding was seen depends on the method and setting. Binding seen in cells or lysates may run through a third protein. Some results given as binding are weak or reduced against the parent protein; the word gives no strength.

B1: HK2 (enzyme, UniProt P52789 1-917)
chain: MIASHLLAYFFTELNHDQVQKVDQYLYHMRLSDETLLEISKRFRKEMEKGLGATTHPTAAVKMLPTFVRSTPDGTEHGEFLALDLGGTNFRVLWVKVTDNGLQKVEMENQIYAIPEDIMRGSGTQLFDHIAECLANFMDKLQIKDKKLPLGFTFSFPCHQTKLDESFLVSWTKGFKSSGVEGRDVVALIRKAIQRRGDFDIDIVAVVNDTVGTMMTCGYDDHNCEIGLIVGTGSNACYMEEMRHIDMVEGDEGRMCINMEWGAFGDDGSLNDIRTEFDQEIDMGSLNPGKQLFEKMISGMYMGELVRLILVKMAKEELLFGGKLSPELLNTGRFETKDISDIEGEKDGIRKAREVLMRLGLDPTQEDCVATHRICQIVSTRSASLCAATLAAVLQRIKENKGEERLRSTIGVDGSVYKKHPHFAKRLHKTVRRLVPGCDVRFLRSEDGSGKGAAMVTAVAYRLADQHRARQKTLEHLQLSHDQLLEVKRRMKVEMERGLSKETHASAPVKMLPTYVCATPDGTEKGDFLALDLGGTNFRVLLVRVRNGKWGGVEMHNKIYAIPQEVMHGTGDELFDHIVQCIADFLEYMGMKGVSLPLGFTFSFPCQQNSLDESILLKWTKGFKASGCEGEDVVTLLKEAIHRREEFDLDVVAVVNDTVGTMMTCGFEDPHCEVGLIVGTGSNACYMEEMRNVELVEGEEGRMCVNMEWGAFGDNGCLDDFRTEFDVAVDELSLNPGKQRFEKMISGMYLGEIVRNILIDFTKRGLLFRGRISERLKTRGIFETKFLSQIESDCLALLQVRAILQHLGLESTCDDSIIVKEVCTVVARRAAQLCGAGMAAVVDRIRENRGLDALKVTVGVDGTLYKLHPHFAKVMHETVKDLAPKCDVSFLQSEDGSGKGAALITAVACRIREAGQR
For the molecule B1, the binding entry with PTPN2 is recorded as “binds”.

B2: PTPN2 (enzyme, UniProt P17706 1-415)
chain: MPTTIEREFEELDTQRRWQPLYLEIRNESHDYPHRVAKFPENRNRNRYRDVSPYDHSRVKLQNAENDYINASLVDIEEAQRSYILTQGPLPNTCCHFWLMVWQQKTKAVVMLNRIVEKESVKCAQYWPTDDQEMLFKETGFSVKLLSEDVKSYYTVHLLQLENINSGETRTISHFHYTTWPDFGVPESPASFLNFLFKVRESGSLNPDHGPAVIHCSAGIGRSGTFSLVDTCLVLMEKGDDINIKQVLLNMRKYRMGLIQTPDQLRFSYMAIIEGAKCIKGDSSIQKRWKELSKEDLSPAFDHSPNKIMTEKYNGNRIGLEEEKLTGDRCTGLSSKMQDTMEENSESALRKRIREDRKATTAQKVQQMKQRLNENERKRKRWLYWQPILTKMGFMSVILVGAFVGWTLFFQQNAL
As for B2, the binding result with HK2 was “binds”.
